# These are yes or no findings as the source states them, for the method shown. In cells and extracts the contact can be indirect. Some entries that bind do so weakly or less than the wild type.
# Amino acid sequences for entries named in this document (tags omitted).
# UniProt Q15554: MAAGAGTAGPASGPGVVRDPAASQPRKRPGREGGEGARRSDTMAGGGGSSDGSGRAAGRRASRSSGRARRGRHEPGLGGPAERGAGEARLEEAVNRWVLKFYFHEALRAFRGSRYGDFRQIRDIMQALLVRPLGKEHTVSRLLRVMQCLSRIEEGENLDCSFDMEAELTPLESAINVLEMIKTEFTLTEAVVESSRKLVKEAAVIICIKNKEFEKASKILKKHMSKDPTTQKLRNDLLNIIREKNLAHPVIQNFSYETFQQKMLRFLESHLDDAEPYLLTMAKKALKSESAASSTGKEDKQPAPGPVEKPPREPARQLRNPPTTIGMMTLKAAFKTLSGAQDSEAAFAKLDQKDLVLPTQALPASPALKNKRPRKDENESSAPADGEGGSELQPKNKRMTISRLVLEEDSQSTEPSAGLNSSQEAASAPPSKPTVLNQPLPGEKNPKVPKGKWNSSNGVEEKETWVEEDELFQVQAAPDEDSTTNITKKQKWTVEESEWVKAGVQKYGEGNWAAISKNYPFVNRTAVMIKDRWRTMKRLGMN
# B1: RE1-silencing factor (REST) (protein, UniProt Q13127 1-1097)
# chain: MATQVMGQSSGGGGLFTSSGNIGMALPNDMYDLHDLSKAELAAPQLIMLANVALTGEVNGSCCDYLVGEERQMAELMPVGDNNFSDSEEGEGLEESADIKGEPHGLENMELRSLELSVVEPQPVFEASGAPDIYSSNKDLPPETPGAEDKGKSSKTKPFRCKPCQYEAESEEQFVHHIRVHSAKKFFVEESAEKQAKARESGSSTAEEGDFSKGPIRCDRCGYNTNRYDHYTAHLKHHTRAGDNERVYKCIICTYTTVSEYHWRKHLRNHFPRKVYTCGKCNYFSDRKNNYVQHVRTHTGERPYKCELCPYSSSQKTHLTRHMRTHSGEKPFKCDQCSYVASNQHEVTRHARQVHNGPKPLNCPHCDYKTADRSNFKKHVELHVNPRQFNCPVCDYAASKKCNLQYHFKSKHPTCPNKTMDVSKVKLKKTKKREADLPDNITNEKTEIEQTKIKGDVAGKKNEKSVKAEKRDVSKEKKPSNNVSVIQVTTRTRKSVTEVKEMDVHTGSNSEKFSKTKKSKRKLEVDSHSLHGPVNDEESSTKKKKKVESKSKNNSQEVPKGDSKVEENKKQNTCMKKSTKKKTLKNKSSKKSSKPPQKEPVEKGSAQMDPPQMGPAPTEAVQKGPVQVEPPPPMEHAQMEGAQIRPAPDEPVQMEVVQEGPAQKELLPPVEPAQMVGAQIVLAHMELPPPMETAQTEVAQMGPAPMEPAQMEVAQVESAPMQVVQKEPVQMELSPPMEVVQKEPVQIELSPPMEVVQKEPVKIELSPPIEVVQKEPVQMELSPPMGVVQKEPAQREPPPPREPPLHMEPISKKPPLRKDKKEKSNMQSERARKEQVLIEVGLVPVKDSWLLKESVSTEDLSPPSPPLPKENLREEASGDQKLLNTGEGNKEAPLQKVGAEEADESLPGLAANINESTHISSSGQNLNTPEGETLNGKHQTDSIVCEMKMDTDQNTRENLTGINSTVEEPVSPMLPPSAVEEREAVSKTALASPPATMAANESQEIDEDEGIHSHEGSDLSDNMSEGSDDSGLHGARPVPQESSRKNAKEALAVKAAKGDFVCIFCDRSFRKGKDYSKHLNRHLVNVYYLEEAAQGQE
# B2: RE1-silencing factor (REST), Q13127 1-1097 (protein)
# chain: B1 chain
# Tests used:
# [1] = biological target: telomere-binding protein TRF2 (human (endogenous in MRC5 or HT1080)) (UniProt Q15554); test: co-IP
# [2] = biological target: EZH2 (catalytic component of the PRC2 complex) (human (endogenous in HT1080)), Q15910; test: co-IP; details: remark: other sources report otherwise
Binder,binding [1],binding [2]
B1,binds,
B2,,binds

# — doi:10.1101/2020.01.15.907626
